# Results reported in the supplement of paper PMC12823440, “Inhibitors supercharge kinase turnover through native proteolytic circuits” (Nature, 2025).
# Amino acid sequences for entries named in this document (tags omitted). A change or cut given only in a name is not applied to a line headed by its entry.
# UniProt P11362, whole entry, looked up: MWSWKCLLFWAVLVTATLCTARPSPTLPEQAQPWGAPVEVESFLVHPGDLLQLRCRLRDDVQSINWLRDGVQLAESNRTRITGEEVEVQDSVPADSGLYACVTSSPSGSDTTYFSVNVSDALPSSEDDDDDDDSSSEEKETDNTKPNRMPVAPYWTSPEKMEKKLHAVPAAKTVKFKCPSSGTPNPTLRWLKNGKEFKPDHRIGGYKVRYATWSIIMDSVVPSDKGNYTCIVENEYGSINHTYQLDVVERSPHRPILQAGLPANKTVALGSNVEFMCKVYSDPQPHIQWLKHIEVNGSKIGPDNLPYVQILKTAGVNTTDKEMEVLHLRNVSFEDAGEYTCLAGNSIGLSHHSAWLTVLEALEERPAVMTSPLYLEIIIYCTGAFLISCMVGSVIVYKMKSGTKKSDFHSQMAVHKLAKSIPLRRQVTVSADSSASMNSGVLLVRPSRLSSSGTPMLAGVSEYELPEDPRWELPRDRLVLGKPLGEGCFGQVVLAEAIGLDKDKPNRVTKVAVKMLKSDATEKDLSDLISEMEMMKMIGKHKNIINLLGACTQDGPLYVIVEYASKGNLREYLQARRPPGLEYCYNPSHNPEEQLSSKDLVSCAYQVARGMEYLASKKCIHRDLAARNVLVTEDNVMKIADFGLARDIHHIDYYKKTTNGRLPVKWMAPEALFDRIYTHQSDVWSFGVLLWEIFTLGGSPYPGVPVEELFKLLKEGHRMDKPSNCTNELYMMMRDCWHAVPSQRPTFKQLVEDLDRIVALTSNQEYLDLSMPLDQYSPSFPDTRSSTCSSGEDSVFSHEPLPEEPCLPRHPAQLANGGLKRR
# UniProt P21802, whole entry, looked up: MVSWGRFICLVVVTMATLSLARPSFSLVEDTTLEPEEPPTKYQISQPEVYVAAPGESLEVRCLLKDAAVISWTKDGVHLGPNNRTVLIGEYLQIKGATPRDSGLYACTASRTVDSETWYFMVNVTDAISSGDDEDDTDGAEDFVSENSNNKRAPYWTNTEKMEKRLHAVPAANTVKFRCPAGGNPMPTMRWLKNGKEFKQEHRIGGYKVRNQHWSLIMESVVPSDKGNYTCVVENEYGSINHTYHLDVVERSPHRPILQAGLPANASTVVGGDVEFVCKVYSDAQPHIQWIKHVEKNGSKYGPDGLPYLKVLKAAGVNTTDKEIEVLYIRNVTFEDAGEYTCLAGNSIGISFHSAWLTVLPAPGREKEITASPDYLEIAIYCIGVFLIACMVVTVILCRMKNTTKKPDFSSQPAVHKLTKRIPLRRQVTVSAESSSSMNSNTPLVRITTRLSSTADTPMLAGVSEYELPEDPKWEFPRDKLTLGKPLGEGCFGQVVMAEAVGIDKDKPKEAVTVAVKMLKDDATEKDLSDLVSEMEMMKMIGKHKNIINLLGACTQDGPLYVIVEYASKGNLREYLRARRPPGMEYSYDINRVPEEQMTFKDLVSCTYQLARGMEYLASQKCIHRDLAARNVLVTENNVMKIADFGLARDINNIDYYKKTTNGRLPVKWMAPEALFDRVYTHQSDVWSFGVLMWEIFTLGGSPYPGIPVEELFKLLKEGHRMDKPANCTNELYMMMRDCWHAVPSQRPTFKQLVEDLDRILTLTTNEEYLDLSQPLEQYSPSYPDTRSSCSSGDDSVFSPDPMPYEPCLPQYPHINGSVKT
# UniProt P49840: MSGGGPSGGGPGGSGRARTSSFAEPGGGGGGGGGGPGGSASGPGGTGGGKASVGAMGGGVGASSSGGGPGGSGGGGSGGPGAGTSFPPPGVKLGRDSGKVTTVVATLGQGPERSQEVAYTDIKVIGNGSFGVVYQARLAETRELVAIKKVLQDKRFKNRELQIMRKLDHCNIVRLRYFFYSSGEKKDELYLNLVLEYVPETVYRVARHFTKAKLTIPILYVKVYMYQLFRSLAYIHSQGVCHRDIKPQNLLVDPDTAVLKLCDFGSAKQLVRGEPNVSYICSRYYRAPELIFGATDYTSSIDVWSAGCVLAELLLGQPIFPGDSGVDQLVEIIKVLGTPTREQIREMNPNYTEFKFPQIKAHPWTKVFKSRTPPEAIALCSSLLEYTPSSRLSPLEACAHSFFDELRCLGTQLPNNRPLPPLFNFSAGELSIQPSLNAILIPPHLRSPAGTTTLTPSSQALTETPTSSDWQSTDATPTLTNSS
# UniProt Q9Y616: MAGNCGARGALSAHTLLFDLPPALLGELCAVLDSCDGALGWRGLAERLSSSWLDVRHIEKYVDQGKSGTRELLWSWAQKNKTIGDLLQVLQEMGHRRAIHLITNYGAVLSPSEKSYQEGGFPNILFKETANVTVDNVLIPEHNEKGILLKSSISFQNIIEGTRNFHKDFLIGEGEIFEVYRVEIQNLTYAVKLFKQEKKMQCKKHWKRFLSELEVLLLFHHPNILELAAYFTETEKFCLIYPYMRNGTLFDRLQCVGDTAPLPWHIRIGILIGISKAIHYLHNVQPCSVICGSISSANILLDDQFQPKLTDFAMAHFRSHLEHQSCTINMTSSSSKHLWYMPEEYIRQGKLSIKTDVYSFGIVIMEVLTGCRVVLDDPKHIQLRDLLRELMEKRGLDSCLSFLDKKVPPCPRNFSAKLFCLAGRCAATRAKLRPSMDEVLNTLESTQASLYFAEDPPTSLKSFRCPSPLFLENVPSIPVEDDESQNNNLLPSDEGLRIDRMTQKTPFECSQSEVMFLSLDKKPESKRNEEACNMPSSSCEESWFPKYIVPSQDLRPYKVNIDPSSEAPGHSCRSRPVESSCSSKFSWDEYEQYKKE
# UniProt P23458: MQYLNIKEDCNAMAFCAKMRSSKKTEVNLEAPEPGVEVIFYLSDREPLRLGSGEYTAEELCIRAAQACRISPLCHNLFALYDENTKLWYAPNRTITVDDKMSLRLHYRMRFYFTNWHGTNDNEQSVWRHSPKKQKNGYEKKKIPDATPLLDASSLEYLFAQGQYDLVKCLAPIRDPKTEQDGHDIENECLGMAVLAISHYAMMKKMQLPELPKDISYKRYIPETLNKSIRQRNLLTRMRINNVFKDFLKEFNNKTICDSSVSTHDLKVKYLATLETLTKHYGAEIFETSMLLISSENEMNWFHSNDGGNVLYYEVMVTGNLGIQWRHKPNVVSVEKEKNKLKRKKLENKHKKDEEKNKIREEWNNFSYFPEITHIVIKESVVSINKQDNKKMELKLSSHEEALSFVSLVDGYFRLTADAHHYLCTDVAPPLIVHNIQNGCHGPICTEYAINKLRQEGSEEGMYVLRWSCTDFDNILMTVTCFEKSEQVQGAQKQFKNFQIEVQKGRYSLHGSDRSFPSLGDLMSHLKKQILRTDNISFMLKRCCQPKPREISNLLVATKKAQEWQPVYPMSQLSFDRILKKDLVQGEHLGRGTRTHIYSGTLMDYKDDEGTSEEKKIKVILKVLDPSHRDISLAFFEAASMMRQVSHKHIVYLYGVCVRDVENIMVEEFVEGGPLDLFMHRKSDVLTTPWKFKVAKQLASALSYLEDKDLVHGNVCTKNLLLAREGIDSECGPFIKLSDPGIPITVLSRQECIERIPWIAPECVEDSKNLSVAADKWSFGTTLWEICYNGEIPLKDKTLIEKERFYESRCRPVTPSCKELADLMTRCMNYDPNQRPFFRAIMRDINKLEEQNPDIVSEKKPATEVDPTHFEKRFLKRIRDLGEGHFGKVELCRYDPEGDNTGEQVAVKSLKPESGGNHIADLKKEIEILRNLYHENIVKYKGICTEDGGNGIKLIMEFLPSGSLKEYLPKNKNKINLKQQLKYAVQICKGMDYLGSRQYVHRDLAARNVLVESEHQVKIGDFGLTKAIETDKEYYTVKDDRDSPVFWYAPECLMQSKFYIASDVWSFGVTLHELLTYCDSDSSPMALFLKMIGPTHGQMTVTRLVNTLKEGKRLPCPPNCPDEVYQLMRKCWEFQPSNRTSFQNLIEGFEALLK
# UniProt P06239: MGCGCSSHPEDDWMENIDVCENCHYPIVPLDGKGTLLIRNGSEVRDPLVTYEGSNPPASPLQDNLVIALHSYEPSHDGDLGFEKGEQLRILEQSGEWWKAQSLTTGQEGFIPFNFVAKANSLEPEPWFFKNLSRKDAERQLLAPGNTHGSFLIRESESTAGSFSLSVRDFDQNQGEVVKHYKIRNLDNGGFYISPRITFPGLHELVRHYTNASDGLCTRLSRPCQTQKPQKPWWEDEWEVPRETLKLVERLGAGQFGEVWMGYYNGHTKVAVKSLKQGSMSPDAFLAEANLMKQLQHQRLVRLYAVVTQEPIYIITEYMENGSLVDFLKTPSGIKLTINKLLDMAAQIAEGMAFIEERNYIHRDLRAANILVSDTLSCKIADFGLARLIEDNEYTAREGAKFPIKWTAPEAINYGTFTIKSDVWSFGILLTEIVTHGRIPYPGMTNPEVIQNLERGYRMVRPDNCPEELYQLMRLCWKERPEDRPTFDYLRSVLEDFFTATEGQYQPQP
# UniProt P53667: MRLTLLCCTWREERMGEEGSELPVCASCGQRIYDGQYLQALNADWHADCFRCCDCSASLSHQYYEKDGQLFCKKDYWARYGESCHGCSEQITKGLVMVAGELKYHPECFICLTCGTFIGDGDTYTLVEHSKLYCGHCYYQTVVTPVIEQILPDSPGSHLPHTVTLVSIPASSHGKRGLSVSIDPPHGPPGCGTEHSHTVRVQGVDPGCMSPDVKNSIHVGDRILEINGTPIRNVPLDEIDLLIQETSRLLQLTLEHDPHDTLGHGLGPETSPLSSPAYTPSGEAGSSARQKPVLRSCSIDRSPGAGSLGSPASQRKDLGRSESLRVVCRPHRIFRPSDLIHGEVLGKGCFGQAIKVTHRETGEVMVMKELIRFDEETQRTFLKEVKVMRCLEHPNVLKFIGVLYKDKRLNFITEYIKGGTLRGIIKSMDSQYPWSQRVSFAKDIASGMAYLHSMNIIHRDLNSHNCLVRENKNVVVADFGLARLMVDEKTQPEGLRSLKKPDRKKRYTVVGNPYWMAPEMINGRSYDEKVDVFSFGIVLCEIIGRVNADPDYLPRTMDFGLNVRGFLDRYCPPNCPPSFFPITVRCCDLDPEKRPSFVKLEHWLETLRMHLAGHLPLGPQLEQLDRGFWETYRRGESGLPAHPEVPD
# UniProt P07948: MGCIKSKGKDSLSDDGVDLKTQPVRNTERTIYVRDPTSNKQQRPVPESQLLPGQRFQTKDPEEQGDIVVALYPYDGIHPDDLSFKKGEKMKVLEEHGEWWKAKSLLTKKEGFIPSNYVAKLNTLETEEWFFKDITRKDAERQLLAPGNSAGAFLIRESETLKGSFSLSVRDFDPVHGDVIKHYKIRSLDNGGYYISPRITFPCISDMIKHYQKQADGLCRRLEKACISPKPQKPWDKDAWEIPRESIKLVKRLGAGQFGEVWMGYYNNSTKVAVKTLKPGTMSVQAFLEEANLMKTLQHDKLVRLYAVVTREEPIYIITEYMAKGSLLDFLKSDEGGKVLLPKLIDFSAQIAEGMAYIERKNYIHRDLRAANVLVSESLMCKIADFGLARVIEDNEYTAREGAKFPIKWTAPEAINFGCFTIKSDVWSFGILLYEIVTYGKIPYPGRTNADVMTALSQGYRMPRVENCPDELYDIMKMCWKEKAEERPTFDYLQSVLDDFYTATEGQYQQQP
# UniProt Q12851: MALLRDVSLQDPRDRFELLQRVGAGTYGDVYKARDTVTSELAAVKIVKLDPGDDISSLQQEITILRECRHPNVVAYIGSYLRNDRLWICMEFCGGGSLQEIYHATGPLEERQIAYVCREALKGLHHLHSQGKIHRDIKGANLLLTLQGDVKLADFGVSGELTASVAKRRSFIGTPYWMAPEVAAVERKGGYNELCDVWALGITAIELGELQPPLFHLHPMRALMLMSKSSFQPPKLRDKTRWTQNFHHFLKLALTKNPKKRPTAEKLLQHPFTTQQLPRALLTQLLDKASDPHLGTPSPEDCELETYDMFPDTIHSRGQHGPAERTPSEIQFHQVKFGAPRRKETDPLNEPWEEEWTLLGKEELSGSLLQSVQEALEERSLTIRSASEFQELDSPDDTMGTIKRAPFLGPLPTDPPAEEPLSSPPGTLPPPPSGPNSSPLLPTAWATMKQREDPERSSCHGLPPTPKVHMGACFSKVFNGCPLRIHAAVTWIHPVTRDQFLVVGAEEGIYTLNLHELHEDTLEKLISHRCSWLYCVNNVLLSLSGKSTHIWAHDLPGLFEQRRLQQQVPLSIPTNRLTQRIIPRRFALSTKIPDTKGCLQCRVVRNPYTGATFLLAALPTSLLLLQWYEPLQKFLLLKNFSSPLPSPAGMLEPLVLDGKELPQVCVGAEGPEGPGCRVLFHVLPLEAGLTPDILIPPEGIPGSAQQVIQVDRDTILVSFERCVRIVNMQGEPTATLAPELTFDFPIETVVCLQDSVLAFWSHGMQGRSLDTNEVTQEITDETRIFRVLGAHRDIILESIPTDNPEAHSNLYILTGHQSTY
# This is one part of the list. Hit calls seldom repeat between salt and free forms of one compound.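 In K562 cells expressing nanoluciferase-fused kinases, luminescence was recorded at 4 h intervals between 2 and 18 h, normalized as percent of control with DMSO at 100% and a positive control at 0%. A significant (2 sigma) signal drop marks a time point as decreased. The authors' rule for a hit is not shown and takes in more than the number of time points.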
# What was measured:
# Assay in all cases: kinase-Nluc reporter destabilization hit call (1 = scored as downregulated) (binary); higher = compound decreases kinase abundance
# Details in all cases: K562; 2-18 h
# [1] = biological target: FGFR1 (UniProt P11362)
# [2] = biological target: FGFR2 (UniProt P21802)
# [3] = biological target: FGFR3 (UniProt P22607)
# [4] = biological target: FGR (UniProt P09769)
# [5] = biological target: FLT3 (UniProt P36888)
# [6] = biological target: FYN (UniProt P06241)
# [7] = biological target: GSK3A (UniProt P49840)
# [8] = biological target: HER2 (UniProt P04626)
# [9] = biological target: INSRR (UniProt P14616)
# [10] = biological target: IRAK3 (UniProt Q9Y616)
# [11] = biological target: JAK1 (UniProt P23458)
# [12] = biological target: LCK (UniProt P06239)
# [13] = biological target: LIMK1 (UniProt P53667)
# [14] = biological target: LIMK2 (UniProt P53671)
# [15] = biological target: LMTK2 (UniProt Q8IWU2)
# [16] = biological target: LYN (UniProt P07948)
# [17] = biological target: MAP2K1 (UniProt Q02750)
# [18] = biological target: MAP2K2 (UniProt P36507)
# [19] = biological target: MAP4K2 (UniProt Q12851)
# [20] = biological target: ERN1 (UniProt O75460)
Compound,kinase-Nluc reporter destabilization hit call [1],kinase-Nluc reporter destabilization hit call [2],kinase-Nluc reporter destabilization hit call [3],kinase-Nluc reporter destabilization hit call [4],kinase-Nluc reporter destabilization hit call [5],kinase-Nluc reporter destabilization hit call [6],kinase-Nluc reporter destabilization hit call [7],kinase-Nluc reporter destabilization hit call [8],kinase-Nluc reporter destabilization hit call [9],kinase-Nluc reporter destabilization hit call [10],kinase-Nluc reporter destabilization hit call [11],kinase-Nluc reporter destabilization hit call [12],kinase-Nluc reporter destabilization hit call [13],kinase-Nluc reporter destabilization hit call [14],kinase-Nluc reporter destabilization hit call [15],kinase-Nluc reporter destabilization hit call [16],kinase-Nluc reporter destabilization hit call [17],kinase-Nluc reporter destabilization hit call [18],kinase-Nluc reporter destabilization hit call [19],kinase-Nluc reporter destabilization hit call [20]
O=c1oc2c(C3OCCCO3)c(O)ccc2c2c1CNCC2 (10 µM),inactive: 0,inactive: 0,inactive: 0,inactive: 0,inactive: 0,inactive: 0,inactive: 0,inactive: 0,inactive: 0,inactive: 0,inactive: 0,inactive: 0,inactive: 0,inactive: 0,inactive: 0,inactive: 0,inactive: 0,inactive: 0,inactive: 0,
CN(c1ncccc1CNc1nc(Nc2ccc3c(c2)CC(=O)N3)ncc1C(F)(F)F)S(C)(=O)=O (2.5 µM),inactive: 0,inactive: 0,inactive: 0,inactive: 0,inactive: 0,inactive: 0,inactive: 0,inactive: 0,inactive: 0,inactive: 0,inactive: 0,,inactive: 0,inactive: 0,inactive: 0,inactive: 0,inactive: 0,inactive: 0,inactive: 0,inactive: 0
Cc1c[nH]c(/C=C2\C(=O)Nc3ccccc32)c1CCC(=O)O (10 µM),,inactive: 0,inactive: 0,inactive: 0,inactive: 0,inactive: 0,inactive: 0,inactive: 0,inactive: 0,inactive: 0,inactive: 0,inactive: 0,inactive: 0,inactive: 0,inactive: 0,inactive: 0,inactive: 0,inactive: 0,inactive: 0,inactive: 0
CC(C)(C)n1nc(Cc2cccc3ccccc23)c2c(N)ncnc21 (10 µM),inactive: 0,inactive: 0,inactive: 0,inactive: 0,inactive: 0,inactive: 0,inactive: 0,inactive: 0,inactive: 0,inactive: 0,inactive: 0,,inactive: 0,inactive: 0,inactive: 0,inactive: 0,inactive: 0,inactive: 0,inactive: 0,inactive: 0
Cc1c(Cn2c(C)nc3c(C(=O)O)cc(N4CCOCC4)cc32)cccc1C(F)(F)F (10 µM),inactive: 0,inactive: 0,inactive: 0,,inactive: 0,inactive: 0,inactive: 0,inactive: 0,inactive: 0,inactive: 0,inactive: 0,inactive: 0,inactive: 0,inactive: 0,inactive: 0,inactive: 0,inactive: 0,inactive: 0,inactive: 0,
O=c1oc2ccccc2c(O)c1Cc1c(O)c2ccccc2oc1=O [Dicoumarol] (10 µM),inactive: 0,inactive: 0,inactive: 0,inactive: 0,inactive: 0,inactive: 0,inactive: 0,inactive: 0,inactive: 0,inactive: 0,inactive: 0,,inactive: 0,inactive: 0,inactive: 0,inactive: 0,inactive: 0,inactive: 0,inactive: 0,inactive: 0
C=CC(=O)Nc1cccc(Nc2nc(Nc3ccc(OCCOC)cc3)ncc2F)c1 [Spebrutinib] (10 µM),inactive: 0,inactive: 0,inactive: 0,inactive: 0,inactive: 0,inactive: 0,inactive: 0,inactive: 0,inactive: 0,inactive: 0,inactive: 0,inactive: 0,inactive: 0,inactive: 0,inactive: 0,inactive: 0,inactive: 0,inactive: 0,inactive: 0,
CC(C)=CC/C=C(\C)[C@H]1CC[C@]2(C)[C@@H]1[C@H](O)C[C@@H]1[C@@]3(C)CC[C@H](O[C@@H]4O[C@H](CO)[C@@H](O)[C@H](O)[C@H]4O[C@@H]4O[C@H](CO)[C@@H](O)[C@H](O)[C@H]4O)C(C)(C)[C@@H]3CC[C@]12C [Ginsenoside Rg5] (10 µM),inactive: 0,inactive: 0,inactive: 0,inactive: 0,inactive: 0,inactive: 0,inactive: 0,inactive: 0,inactive: 0,inactive: 0,inactive: 0,inactive: 0,inactive: 0,inactive: 0,inactive: 0,inactive: 0,inactive: 0,inactive: 0,inactive: 0,
Cc1ccc(NC(=O)c2cccc(N(C)C)c2)cc1NC(=O)c1ccc(O)cc1 (10 µM),inactive: 0,inactive: 0,inactive: 0,inactive: 0,inactive: 0,inactive: 0,inactive: 0,inactive: 0,inactive: 0,inactive: 0,inactive: 0,,inactive: 0,inactive: 0,inactive: 0,inactive: 0,inactive: 0,inactive: 0,inactive: 0,inactive: 0
C=CC(=O)N1CCN(CCCn2c(=O)c(-c3c(Cl)c(OC)cc(OC)c3Cl)cc3cnc(NC)nc32)CC1 (10 µM),,,inactive: 0,inactive: 0,inactive: 0,active: 1,inactive: 0,inactive: 0,inactive: 0,inactive: 0,inactive: 0,inactive: 0,inactive: 0,inactive: 0,inactive: 0,inactive: 0,inactive: 0,inactive: 0,inactive: 0,inactive: 0

# Single values from above:
# Value for C=CC(=O)N1CCN(CCCn2c(=O)c(-c3c(Cl)c(OC)cc(OC)c3Cl)cc3cnc(NC)nc32)CC1 (10 µM) under kinase-Nluc reporter destabilization hit call [20]: inactive: 0
# Value for CC(C)=CC/C=C(\C)[C@H]1CC[C@]2(C)[C@@H]1[C@H](O)C[C@@H]1[C@@]3(C)CC[C@H](O[C@@H]4O[C@H](CO)[C@@H](O)[C@H](O)[C@H]4O[C@@H]4O[C@H](CO)[C@@H](O)[C@H](O)[C@H]4O)C(C)(C)[C@@H]3CC[C@]12C [Ginsenoside Rg5] (10 µM) under kinase-Nluc reporter destabilization hit call [10]: inactive: 0
